{
  "sequences": {"note": "Protein sequences, listed by entry. Tags and fused reporters are not part of them.", "UniProt P27695, whole entry, looked up": "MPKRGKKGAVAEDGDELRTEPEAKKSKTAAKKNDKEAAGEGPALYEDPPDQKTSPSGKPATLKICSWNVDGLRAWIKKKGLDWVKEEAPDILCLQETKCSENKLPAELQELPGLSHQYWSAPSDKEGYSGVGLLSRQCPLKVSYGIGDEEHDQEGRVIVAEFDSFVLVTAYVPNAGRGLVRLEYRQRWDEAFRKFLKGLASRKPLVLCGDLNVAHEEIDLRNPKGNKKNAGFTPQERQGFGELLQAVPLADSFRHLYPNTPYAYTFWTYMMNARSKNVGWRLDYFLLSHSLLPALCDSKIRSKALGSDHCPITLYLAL"},
  "source": "PubChem BioAssay AID2517",
  "about": "(National Center for Advancing Translational Sciences (NCATS), 2010)",
  "note": "Hit rate of the full screen: of about 350,000 compounds, about 1,200 (0.34%) were called active. The inconclusive results got no clear call from the source; some entries with a clear call stand among them for comparison. The call rests on the fitted dose curve; in most records, active means well fitted inhibition curve with a large enough effect; inconclusive means small, poorly fitted or top-dose-only effect; inactive means no such curve, though single readings can be large or run the other way. Where the call is inconclusive, the potency comes from a doubtful curve fit. Potency means the concentration at half of the fitted maximal effect.",
  "data": [
    {"biological_target": "DNA repair nuclease/redox regulator APEX1 (Homo sapiens) (UniProt P27695)", "assay": "qHTS Assay for Inhibitors of the Human Apurinic/apyrimidinic Endonuclease 1 (APE1); further: nearly all actives have a fitted effect of over 55% in size;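 on activity change, negative = inhibition: plate controls were vehicle for no effect and reference inhibitor for full effect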", "settings": "recombinant APE1, TAMRA/BHQ-2 abasic DNA cleavage fluorescence; activity change, negative = inhibition: at 65.8 µM (top of the series)", "method_in_brief": "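Quantitative HTS: incision of a TAMRA/BHQ-2 double-stranded substrate bearing a tetrahydrofuran abasic site by 0.75 nM APE1 raises fluorescence. Substrate 50 nM final, added after 15 min compound preincubation at room temperature; progress as third-minus-first kinetic read difference.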", "values": [
      {"smiles": "CN1CCO/C1=C(\\C(Cl)=C(Cl)Cl)[N+](=O)[O-]", "Potency": "inactive"},
      {"smiles": "CC1(OC(=O)c2cccs2)C(=O)C=C2C=C3CCCN3C=C2C1=O", "note": "(stereo not given)", "Potency": "active: 8.91 µM"},
      {"smiles": "COCC(C)N1C(=O)Cc2c1nc(N)c1c(N)nc(N3CCN(c4ccccc4F)CC3)c(C#N)c21", "note": "(stereo not given)", "Potency": "inconclusive: 15.8 µM [inhibitor, partial curve]"},
      {"smiles": "O=C(CSc1ncn(-c2ccccc2)n1)Nc1nc2c(s1)CCCC2", "Potency": "inconclusive: 39.8 µM [inhibitor, single point]"},
      {"smiles": "O=[N+]([O-])c1cccc(Cl)c1NCCNc1ncc(C(F)(F)F)cc1Cl", "Potency": "inconclusive: 1 µM [inhibitor, full curve, poor fit]"},
      {"smiles": "COc1cccc(-c2nnc(SCc3nc4ccccc4s3)n2C)c1", "Potency": "inconclusive: 0.0631 µM [inhibitor, full curve, poor fit]"},
      {"smiles": "S=C(Nc1ccc(N2CCOCC2)cc1)Nc1ccc2nc(-c3ccco3)c(-c3ccco3)nc2c1", "Potency": "inconclusive: 3.55 µM [inhibitor, single point]"},
      {"smiles": "C=CCNC(=S)N/N=C/c1ccc(C(C)(C)C)cc1", "Potency": "inconclusive: 12.6 µM [inhibitor, partial curve, poor fit]"},
      {"smiles": "CNc1ccc(/C=C(\\CCC(=O)O)c2nc3ccccc3s2)cc1[N+](=O)[O-]", "Potency": "active: 35.5 µM"},
      {"smiles": "C(=C\\c1ccco1)/C=N/n1cnnc1", "Potency": "inconclusive: 25.1 µM [inhibitor, single point]"},
      {"smiles": "COc1ccc2cc3cc(C(=O)NCc4ccccn4)oc3nc2c1", "Potency": "inactive"},
      {"smiles": "CCc1ccc(/C=C2/SC(=S)N(CCC(=O)Nc3cccc(C(=O)O)c3)C2=O)cc1", "Potency": "inconclusive: 29.9 µM [inhibitor, single point]"},
      {"smiles": "Nc1c(-c2ccccc2)c(CSc2nc3ccccc3[nH]2)nn1-c1ccc(C(=O)O)cc1", "Potency": "inconclusive: 14.1 µM [inhibitor, partial curve]"},
      {"smiles": "Cc1ccc(NC2=CC(=O)c3sc(C)nc3C2=O)cc1", "Potency": "inconclusive: 6.31 µM [inhibitor, partial curve]"},
      {"smiles": "COc1ccccc1Nc1nnc(SCC(=O)N2CC(=O)Nc3ccccc32)s1", "Potency": "inconclusive: 0.0063 µM [inhibitor, full curve]"},
      {"smiles": "CC1=CC(C)(C)N2C(=O)C(=Nc3ccc(O)cc3)c3cccc1c32", "Potency": "inconclusive: 44.7 µM [inhibitor, single point]"},
      {"smiles": "COC(=O)CCCC1=CC2=CC(=O)C(C)(OC(=O)c3ccco3)C(=O)C2=CO1", "note": "(stereo not given)", "Potency": "inconclusive: 39.8 µM [inhibitor, single point]"},
      {"smiles": "COCCn1c(=O)c(-c2cc(F)cc(F)c2)nc2cnc(N(C)C)nc21", "Potency": "inconclusive: 0.355 µM [inhibitor, full curve, poor fit]"},
      {"smiles": "CCOC(=O)c1nnn2c1nc(N1CCOCC1)c1ccccc12", "Potency": "inconclusive: 3.55 µM [inhibitor, single point]"},
      {"smiles": "[O-][n+]1onc2c1CCC(=N/O)/C2=N\\Nc1ccccc1", "Potency": "inconclusive: 14.1 µM [inhibitor, partial curve, poor fit]"},
      {"smiles": "CCc1ccc(-c2nc(NC(=S)NC(=O)c3cccs3)sc2C)cc1", "Potency": "inconclusive: 44.7 µM [inhibitor, single point]"},
      {"smiles": "CC(C)=CCC/C(C)=C/CC/C(C)=C/CC/C(C)=C/CC1=C(C)C(=O)c2ccccc2C1=O", "Potency": "inconclusive: 3.55 µM [inhibitor, single point]"},
      {"smiles": "O=C(NCc1ccco1)c1ccc([N+](=O)[O-])o1", "Potency": "inconclusive: 15.8 µM [inhibitor, single point]"},
      {"smiles": "Cc1ccc(C(c2c(O)nc3n(c2=O)CCS3)c2c(O)nc3n(c2=O)CCS3)cc1", "Potency": "inconclusive: 1.26 µM [inhibitor, full curve, poor fit]"},
      {"smiles": "COc1ccc(OC)c(NC(=O)c2cc3sccc3n2C)c1", "Potency": "inconclusive: 31.6 µM [inhibitor, single point]"},
      {"smiles": "O=C(NCC(=O)N(Cc1cccs1)C(C(=O)NC1CCCC1)c1ccncc1)c1ccco1", "note": "(stereo not given)", "Potency": "inconclusive: 44.7 µM [inhibitor, single point]"},
      {"smiles": "CCOC(=O)c1sc(NC(=O)c2ccc3nc[nH]c3c2)nc1C", "Potency": "inactive"},
      {"smiles": "COc1cc(/C=C2\\C(=O)N(c3ccc(S(N)(=O)=O)cc3)N=C2C)ccc1OC(=O)c1ccco1", "Potency": "inconclusive: 14.1 µM [inhibitor, partial curve, poor fit]"},
      {"smiles": "Cc1ccc2c(c1)C1OCCC1C1N2C(=O)C2C(C(=O)O)C3C=CC21O3", "note": "(stereo not given)", "Potency": "inconclusive: 35.5 µM [inhibitor, single point]"},
      {"smiles": "COC(=O)c1ccccc1NC(=O)/C=C/c1ccco1", "Potency": "inactive"},
      {"smiles": "C=CC1=C2C=C(C3CC3)N(Cc3ccco3)C=C2C(=O)C(C)(OC(=O)c2ccco2)C1=O", "note": "(stereo not given)", "activity change, negative = inhibition": "inactive: 1.72% [at 12.4 µM]"},
      {"smiles": "Cc1ccc(C)c(S(=O)(=O)N2CCC(c3nc4c(nnn4Cc4ccc(F)cc4)c(=O)[nH]3)CC2)c1", "Potency": "inconclusive: 15.8 µM [inhibitor, single point]"},
      {"smiles": "CN(C)S(=O)(=O)c1cccc2nsnc12", "Potency": "inconclusive: 14.1 µM [inhibitor, partial curve, poor fit]"},
      {"smiles": "Cc1ccc(-c2nc(SCC(=O)NCC3CCCO3)c(-c3ccc(C)cc3)[nH]2)cc1", "note": "(stereo not given)", "Potency": "inconclusive: 3.16 µM [inhibitor, single point]"},
      {"smiles": "Cc1cccc(NC(=S)NC(=O)/C=C/c2ccco2)c1", "Potency": "inactive"},
      {"smiles": "COc1ccc(N2C=C3C(=O)C(C)(OC(=O)C4CCCC4)C(=O)C=C3C=C2c2ccsc2)cc1", "note": "(stereo not given)", "activity change, negative = inhibition": "inactive: -0.903% [at 12.4 µM]"},
      {"smiles": "COc1cccc(C2=Nc3cccc4cccc(c34)N2)c1", "Potency": "inactive"},
      {"smiles": "O=C(COC(=O)c1ccc(O)cc1O)NC12CC3CC(CC(C3)C1)C2", "Potency": "inconclusive: 18.9 µM [inhibitor, single point]"},
      {"smiles": "C#CCOCCOCCOCCNc1nc(N2CCN(C(=O)[C@H]([C@@H](C)CC)n3cc(CCCN=C(N)N)nn3)CC2)nc(N2CCN(C(=O)[C@H](CCCCN)n3cc(CCC(=O)O)nn3)CC2)n1", "Potency": "inconclusive: 3.55 µM [inhibitor, single point]"},
      {"smiles": "CCOCc1c(C(=O)OCC(=O)/C(C#N)=C(\\C)N)oc2ccccc12", "Potency": "inconclusive: 12.6 µM [inhibitor, partial curve, poor fit]"},
      {"smiles": "Cc1ccc(-n2sc3ccccc3c2=O)cc1", "Potency": "inactive"},
      {"smiles": "CC(C)CO/N=C1/C[C@@H](O)[C@@H](O)[C@@H]2[C@@H]3C(=O)N(c4cccc(Oc5ccccc5)c4)C(=O)[C@H]3CC[C@H]12", "Potency": "inconclusive: 7.94 µM [inhibitor, single point]"},
      {"smiles": "COc1cccc(NC(=O)CN(C)C(=O)CSC(=S)N2CCCC2)c1", "Potency": "inconclusive: 8.44 µM [inhibitor, single point]"},
      {"smiles": "CC(C)(C)OC(=O)CNC(=O)c1[nH]cnc1C(=O)NC1CCN(C(=O)OC(C)(C)C)CC1", "Potency": "inconclusive: 5.32 µM [inhibitor, full curve, poor fit]"},
      {"smiles": "Cc1cccn2c(N)c(-c3ccccc3)nc12", "Potency": "inactive"},
      {"smiles": "COC(=O)Cc1ccc2sc(-c3ccccc3)nc2c1", "Potency": "inconclusive: 0.1 µM [inhibitor, full curve, poor fit]"},
      {"smiles": "N#Cc1ccc(NC(=O)COC(=O)CCc2nc3ccccc3c(=O)[nH]2)cc1", "Potency": "inconclusive: 17.8 µM [inhibitor, single point]"},
      {"smiles": "CC/C(C)=N/Nc1nc(-c2cc3cccc(OC)c3oc2=O)cs1", "Potency": "inactive"},
      {"smiles": "Cc1cc(NC(=O)c2ccc3c(c2)C(=O)N(CC(C)C)C3=O)no1", "Potency": "inconclusive: 2.82 µM [inhibitor, partial curve]"},
      {"smiles": "NS(=O)(=O)c1ccc(NCc2cc(Cl)ccc2OCc2ccc(F)cc2)cc1", "Potency": "inconclusive: 22.4 µM [inhibitor, single point]"},
      {"smiles": "COC(=O)c1c(NC(=O)c2nc3nc(C)cc(C(F)F)n3n2)sc2c1CCC2", "Potency": "inconclusive: 12.6 µM [inhibitor, partial curve]"},
      {"smiles": "Cc1c(C(=O)O)cccc1-n1c(C)cc(C=O)c1C", "Potency": "inconclusive: 28.2 µM [inhibitor, single point]"},
      {"smiles": "COc1ccc2[nH]c(C)c(CCNC(=S)Nc3cc(C)ccc3C)c2c1", "Potency": "inconclusive: 8.91 µM [inhibitor, single point]"},
      {"smiles": "CCOc1ccc2nc(NC(=O)C3CCCO3)sc2c1", "note": "(stereo not given)", "Potency": "inconclusive: 1 µM [inhibitor, full curve, poor fit]"},
      {"smiles": "CN(C)C=Nc1ccccc1C1C=NNC1=O", "note": "(stereo not given)", "Potency": "inconclusive: 3.55 µM [inhibitor, single point]"},
      {"smiles": "CCCCCCC1=Cc2cc(OC)c(OC)cc2C(C(C(C)=O)C(=O)OCC)O1", "note": "(stereo not given)", "activity change, negative = inhibition": "inactive: 7.49% [at 12.4 µM]"},
      {"smiles": "Cc1c(O)nc(SCC(=O)Nc2ccc3c4c(cccc24)CC3)n(-c2ccccc2)c1=O", "Potency": "inconclusive: 35.5 µM [inhibitor, partial curve, poor fit]"},
      {"smiles": "COC(=O)c1sc2nc(-c3ccco3)ccc2c1N", "Potency": "inconclusive: 44.7 µM [inhibitor, single point]"},
      {"smiles": "O=C(CCNc1ccc(F)c(Cl)c1)c1ccco1", "Potency": "inconclusive: 1.78 µM [inhibitor, full curve, poor fit]"},
      {"smiles": "CSCC[C@H](NC(=O)[C@H](CC(C)C)NC(=O)[C@H](Cc1c[nH]c2ccccc12)NC(=O)[C@H](CCC(N)=O)NC(=O)[C@@H](NC(=O)[C@H](Cc1ccccc1)NC(=O)[C@H](CC(=O)O)NC(=O)[C@H](CCC(N)=O)NC(=O)[C@H](C)NC(=O)[C@H](CCCNC(=N)N)NC(=O)[C@H](CCCNC(=N)N)NC(=O)[C@H](CO)NC(=O)[C@H](CC(=O)O)NC(=O)[C@H](CC(C)C)NC(=O)[C@H](Cc1ccc(O)cc1)NC(=O)[C@H](CCCCN)NC(=O)[C@H](CO)NC(=O)[C@H](Cc1ccc(O)cc1)NC(=O)[C@H](CC(=O)O)NC(=O)[C@H](CO)NC(=O)[C@@H](NC(=O)[C@H](Cc1ccccc1)NC(=O)[C@@H](NC(=O)CNC(=O)[C@H](CCC(N)=O)NC(=O)[C@H](CO)NC(=O)[C@@H](N)Cc1cnc[nH]1)[C@@H](C)O)[C@@H](C)O)C(C)C)C(=O)N[C@@H](CC(N)=O)C(=O)N[C@H](C(=O)O)[C@@H](C)O", "Potency": "inactive"}
    ]}
  ]
}
